Laboratory results from PubChem BioAssay AID2685 (National Center for Advancing Translational Sciences (NCATS), 2010).
The campaign covered roughly 320,000 compounds. About 2,100 (0.66%) were called active. This list was built around the results that the source calls inconclusive (neither active nor inactive); the mix of calls is not that of the screen. The call rests on the fitted dose curve; in most records, active means well fitted inhibition curve with a large enough effect in the signal ratio, with a control signal flat (not every such curve was filed as active); inconclusive means small, poorly fitted or top-dose-only effect, or effect the other way, or a change in a side signal; inactive means flat fitted curve, though single readings scatter; the % refers to the signal ratio. Where the call is inconclusive, the potency comes from a doubtful curve fit.

experiment: qHTS Assay for Lipid Storage Modulators in Drosophila S3 Cells; conditions: BODIPY lipid droplet fluorescence, 18-24 h, cells fed with added oleic acid; lipid storage change, negative = inhibition: at 46.1 µM (top of the series) unless noted
Summary of the method: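 Drosophila S3 cells got compounds at several concentrations plus oleic acid (400 uM solution). Laser-scanning cytometry with 488 nm excitation read lipid droplets at 500-530 nm and cells at 575-640 nm. Percent activity was relative to 20 uM Triacsin C.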
On the % scale 0 is the no-effect control and ±100 the full control effect; potency means the concentration at half of the fitted maximal effect.

Row | SMILES | Potency | lipid storage change, negative = inhibition
1 | O=C(NCCN1CCOCC1)c1ccc(-c2ccccc2)cc1 | inconclusive: 6.51 µM [falling, single point] | 
2 | C=CCN(c1ccccc1)S(=O)(=O)c1cccc(C(=O)N(CC)CC(=O)Nc2c(F)cccc2F)c1 |  | inconclusive: -23.5%
3 | CCOC(=O)C(C)N1C(=O)S/C(=C/c2ccc3c(c2)n(C)c(=O)n3C)C1=O (centres undefined) | inconclusive: 16.4 µM [falling, single point] | 
4 | Cc1nn(-c2ccccn2)c2c1C(c1c(F)cccc1Cl)C1=C(N2)c2ccccc2C1=O (centres undefined) | inconclusive: 0.291 µM [activator, full curve, poor fit] | 
5 | O=C(CSc1nc(-c2ccccc2)c(-c2ccccc2)o1)NCCCO | inconclusive: 29.1 µM [falling, single point] | 
6 | CS(=O)(=O)Nc1ccccc1C(=O)c1ccccc1 |  | inconclusive: -52.9%
7 | COc1ccc(-c2csc(NC(=S)NC(=O)c3ccc(S(=O)(=O)N(C)C)cc3)n2)cc1OC |  | inconclusive: -19.2%
8 | NC(=O)c1nsc(C(=O)N(CC(=O)NCc2ccc(F)cc2)Cc2ccco2)c1N | inconclusive: 9.2 µM [activator, partial curve] | 
9 | COc1ccc(CNCCc2ccc([N+](=O)[O-])cc2)c(OC)c1OC |  | inconclusive: -7.22%
10 | O=C(Nc1nnc(C2=COCCO2)o1)c1ccc(Cl)cc1 |  | inconclusive: -52.1%
11 | COc1cc(OC)cc(C(=O)NCCNc2nc3cc(C)cc(C)c3cc2C#N)c1 |  | inconclusive: 64.5%
12 | CC(C)Oc1cccc(C(=O)O)c1 | active: 16.4 µM | 
13 | Nc1ncnc(Nc2ccccc2Cl)n1 |  | inconclusive: -15%
14 | CCC(C(=O)Nc1ccccc1N1CCCC1)c1ccccc1 (centres undefined) |  | inconclusive: -12.3%
15 | O=C(N/N=C/c1ccccn1)c1cc(-c2ccc(Cl)cc2)nc2ccccc12 |  | inconclusive: -8.66%
16 | CCOC(=O)c1c(-c2cccs2)csc1NC(=O)c1ccncc1 | inconclusive: 5.8 µM [activator, partial curve] | 
17 | Cc1nc2ccc(NC(=O)N3CCC(c4ccccc4)C3)cc2nc1C (centres undefined) | inconclusive: 0.082 µM [activator, single point] | 
18 | c1ccc(-c2cc3ccccc3[nH]2)cc1 | inconclusive: 20.6 µM [falling, single point] | 
19 | CCOc1ccc(Oc2ccc(Cl)cc2NC(=O)C2=COCCO2)cc1 |  | inconclusive: 46.8%
20 | CC[C@@](C)(NS(=O)(=O)OCC(Cl)(Cl)Cl)c1ccccc1 |  | inconclusive: 28.7%
21 | O=[N+]([O-])c1cnccc1NC1CCCCC1 |  | inconclusive: -12.1%
22 | N#C/C(=C/c1ccc(Sc2nc3ccccc3[nH]2)o1)c1ccccc1F | inconclusive: 2.06 µM [rising, partial curve] | 
23 | COc1cccc(CN(C)C(=O)Cc2c[nH]c3ccccc23)c1 |  | inconclusive: 20.4%
24 | CCCCOc1ccc(CNC(=O)NS(=O)(=O)c2ccc(OCC(C)C)cc2)cc1 |  | inconclusive: -38%
25 | CC(C)c1ccc(/C=N/Nc2cc(N3CCOCC3)nc(N3CCOCC3)n2)cc1 |  | inconclusive: -35.5%

Among those listed so far, these contain nitrogen in an aromatic ring:
Row | SMILES | Potency | lipid storage change, negative = inhibition
3 | CCOC(=O)C(C)N1C(=O)S/C(=C/c2ccc3c(c2)n(C)c(=O)n3C)C1=O (centres undefined) | inconclusive: 16.4 µM [falling, single point] | 
4 | Cc1nn(-c2ccccn2)c2c1C(c1c(F)cccc1Cl)C1=C(N2)c2ccccc2C1=O (centres undefined) | inconclusive: 0.291 µM [activator, full curve, poor fit] | 
5 | O=C(CSc1nc(-c2ccccc2)c(-c2ccccc2)o1)NCCCO | inconclusive: 29.1 µM [falling, single point] | 
7 | COc1ccc(-c2csc(NC(=S)NC(=O)c3ccc(S(=O)(=O)N(C)C)cc3)n2)cc1OC |  | inconclusive: -19.2%
8 | NC(=O)c1nsc(C(=O)N(CC(=O)NCc2ccc(F)cc2)Cc2ccco2)c1N | inconclusive: 9.2 µM [activator, partial curve] | 
10 | O=C(Nc1nnc(C2=COCCO2)o1)c1ccc(Cl)cc1 |  | inconclusive: -52.1%
11 | COc1cc(OC)cc(C(=O)NCCNc2nc3cc(C)cc(C)c3cc2C#N)c1 |  | inconclusive: 64.5%
13 | Nc1ncnc(Nc2ccccc2Cl)n1 |  | inconclusive: -15%
15 | O=C(N/N=C/c1ccccn1)c1cc(-c2ccc(Cl)cc2)nc2ccccc12 |  | inconclusive: -8.66%
16 | CCOC(=O)c1c(-c2cccs2)csc1NC(=O)c1ccncc1 | inconclusive: 5.8 µM [activator, partial curve] | 
17 | Cc1nc2ccc(NC(=O)N3CCC(c4ccccc4)C3)cc2nc1C (centres undefined) | inconclusive: 0.082 µM [activator, single point] | 
18 | c1ccc(-c2cc3ccccc3[nH]2)cc1 | inconclusive: 20.6 µM [falling, single point] | 
21 | O=[N+]([O-])c1cnccc1NC1CCCCC1 |  | inconclusive: -12.1%
22 | N#C/C(=C/c1ccc(Sc2nc3ccccc3[nH]2)o1)c1ccccc1F | inconclusive: 2.06 µM [rising, partial curve] | 
23 | COc1cccc(CN(C)C(=O)Cc2c[nH]c3ccccc23)c1 |  | inconclusive: 20.4%
25 | CC(C)c1ccc(/C=N/Nc2cc(N3CCOCC3)nc(N3CCOCC3)n2)cc1 |  | inconclusive: -35.5%

An excerpt from above in order of SMILES length, low to high:
Row | SMILES | Potency | lipid storage change, negative = inhibition
9 | COc1ccc(CNCCc2ccc([N+](=O)[O-])cc2)c(OC)c1OC |  | inconclusive: -7.22%
22 | N#C/C(=C/c1ccc(Sc2nc3ccccc3[nH]2)o1)c1ccccc1F | inconclusive: 2.06 µM [rising, partial curve] | 
25 | CC(C)c1ccc(/C=N/Nc2cc(N3CCOCC3)nc(N3CCOCC3)n2)cc1 |  | inconclusive: -35.5%

Following part:

Row | SMILES | Potency | lipid storage change, negative = inhibition
26 | O=C(CN(Cc1ccc(Br)cc1)S(=O)(=O)c1ccccc1)NCc1cccnc1 |  | inconclusive: -25.7%
27 | CCOC(=O)c1ccccc1NC(=O)c1cccc2c1C(=O)N(C1CCN(C(=O)OCC)CC1)C2 |  | inconclusive: 5.34%
28 | CCc1nc(SCC(=O)N2CC(=O)Nc3ccccc32)c2c(C)c(C)sc2n1 | inconclusive: 20.6 µM [falling, partial curve] | 
29 | COc1cc(/C=C(\CC(=O)O)c2nc3ccccc3s2)cc(OC)c1O |  | inconclusive: 17.7%
30 | COc1ccc(CCNC(=O)CSc2ccc(-c3ccccc3)nn2)cc1OC | inconclusive: 10.3 µM [falling, single point] | 
31 | COc1ccccc1NC(=O)COC(=O)c1cnc(C)cn1 |  | inconclusive: 13.9%
32 | CCC1CCCCN1S(=O)(=O)c1ccc2[nH]c(=O)ccc2c1 (centres undefined) | inconclusive: 29.1 µM [falling, single point] | 
33 | COc1ccccc1N1CCN(C(=O)c2cc(-c3ccco3)on2)CC1 |  | inconclusive: -8.87%
34 | COc1ccc(CNC(=O)C(c2cccc(C)c2)N(C(=O)c2csnn2)C2CC2)cc1 (centres undefined) | active: 2.06 µM | 
35 | COc1ccc(CC(=O)NCCc2cnc[nH]2)cc1 |  | inconclusive: -20.1%
36 | Cc1cc(OCC(=O)O/N=C(\N)Cc2cccs2)ccc1Br |  | inconclusive: 409%
37 | CC(=O)Nc1ccc(NC(=O)C(C)OC(=O)CC2CCCCC2)cc1 (centres undefined) |  | inconclusive: -45% [at 0.0737 µM]
38 | O=C(NCc1cccnc1)C1CCCN(S(=O)(=O)c2ccccc2)C1 (centres undefined) | inconclusive: 0.731 µM [falling, single point] | 
39 | O=c1c2ccccc2nc(/C=C/c2ccc([N+](=O)[O-])cc2)n1CCCO | inconclusive: 14.6 µM [activator, single point] | 
40 | Fc1ccc(CNc2nc(-c3ccco3)cc(C(F)(F)F)n2)cc1 |  | inconclusive: -48.5%
41 | N#CCSc1nnc(-c2ccc3c(c2)OCO3)o1 |  | inconclusive: 23.5%
42 | CC(C)Cc1cc(C(=O)N(C)C2CCCN(Cc3ccccc3F)C2)n(C)n1 (centres undefined) |  | inconclusive: 25.4%
43 | Cc1ccc(C)c(NS(=O)(=O)c2ccc(-c3cnc(C4CC4)o3)cc2)c1 | inconclusive: 29.1 µM [falling, single point] | 
44 | O=C(OCC(=O)C12CC3CC(CC(C3)C1)C2)c1cccnc1Cl | inconclusive: 29.1 µM [falling, single point] | 
45 | COc1ccc(/C=N/n2cnc3c([nH]c4ccc(C)cc43)c2=O)cc1CN1CCCC1 | inconclusive: 29.1 µM [cytotoxic, single point] | 
46 | CC(C)Cn1c(SCC(=O)N2CCN(S(=O)(=O)c3ccccc3)CC2)nc2ccccc21 |  | inconclusive: -9.74%
47 | COc1ccccc1/C=N/NC(=O)C(C)Cn1cnc2ccccc21 (centres undefined) |  | inconclusive: 18.7%
48 | COc1cccc2cc(C(=O)C3=C(O)C(=O)N(CCN4CCOCC4)C3c3ccc(C(C)(C)C)cc3)oc12 (centres undefined) | inconclusive: 0.58 µM [activator, single point] | 
49 | Cc1ccc(-n2c(SCC(=O)Nc3ccc(Cl)cc3)nc(O)cc2=O)cc1 | inconclusive: 29.1 µM [activator, single point] | 
50 | CC1CCC(NC(=O)C2CCN(C(=O)Nc3ccccc3)CC2)CC1 (centres undefined) | inconclusive: 4.11 µM [falling, single point] | 

Row | SMILES | Potency | lipid storage change, negative = inhibition
51 | Cn1c(SCc2nc3cc(C(=O)O)ccc3c(=O)[nH]2)nnc1C(F)(F)F |  | inconclusive: -31.8%
52 | CCCCCCC(=O)Nc1nc(C)c(-c2csc(Nc3cc(Cl)ccc3OC)n2)s1 |  | inconclusive: -16.4%
53 | CN(C)S(=O)(=O)c1ccc2c(c1)C(=O)c1cc(S(=O)(=O)N(C)C)ccc1CC2 |  | inconclusive: -14%
54 | O=[N+]([O-])c1ccc(N/N=C/c2sc(N3CCOCC3)nc2-c2ccccc2)c(S(=O)(=O)Nc2ccccc2Cl)c1 | active: 1.03 µM | 
55 | Cc1[nH]nc2c1C1(C(=O)Nc3ccc([N+](=O)[O-])cc31)C(C#N)=C(N)O2 (centres undefined) |  | inconclusive: 75.6%
56 | N#Cc1ccc(OCC(=O)NCC2COc3ccccc3O2)cc1 (centres undefined) |  | inconclusive: -73.1%
57 | CCC(C)NCCOCCOc1ccc(Cl)c2ccccc12 (centres undefined) | inconclusive: 6.51 µM [cytotoxic, single point] | 
58 | O=C1C=CC(=C(c2ccc(O)cc2)c2ccc(O)cc2)C=C1 |  | inconclusive: -46.2%
59 | CCc1ccc2oc(C(=O)N3CCN(c4ccc(OC)cc4)CC3)cc(=O)c2c1 |  | inconclusive: 11.5%
60 | CC(C)CN(C(=O)C1CC1)c1c(N)n(Cc2ccccc2)c(=O)[nH]c1=O |  | inconclusive
61 | O=C1c2ccccc2C(Nc2ccccc2)N1Cc1ccc2c(c1)OCO2 (centres undefined) |  | inconclusive: 24.1%
62 | CC(=O)c1cc2c(cc1N(C(=O)c1ccco1)C(C(=O)NC1CCCC1)c1ccccc1F)OCO2 (centres undefined) | inconclusive: 6.51 µM [activator, single point] | 
63 | CCOc1cc(CNCCCN2CCOCC2)ccc1OCC(=O)NC(C)(C)C |  | inconclusive: -21.4%
64 | COc1ccc(/C=C/C(=O)c2cc(Br)ccc2O)cc1OC |  | inconclusive: 28.4% [at 9.22 µM]
65 | COc1ccc(-n2c(SCC(C)=O)nc3sc(C)c(C)c3c2=O)cc1 | inconclusive: 29.1 µM [falling, single point] | 
66 | COc1cc(Cl)ccc1OCc1cc(C(=O)N2CC[C@@H]3CCCC[C@H]3C2)no1 |  | inconclusive: -11.4%
67 | COCCNC(=O)CCC1CCN(Cc2cccc(Oc3ccccc3)c2)CC1 | inconclusive: 0.13 µM [falling, full curve, poor fit] | 
68 | COCCn1c(SCC(=O)NC2CCCCC2)nnc1-c1ccncc1 |  | inconclusive: 31%
69 | Cc1ncc([N+](=O)[O-])n1CCOC(=O)Nc1ccc([N+](=O)[O-])cc1 |  | inconclusive: -23.5%
70 | CCN1C(=O)[C@@H]2[C@@H](c3ccc(-c4ccc(Cl)c(Cl)c4)cc3)N3CCCC[C@@]3(C(=O)OC)[C@@H]2C1=O |  | inconclusive: -4.03%
71 | CCOc1ccc(C(=O)OCC(=O)NC(C)C)cc1 |  | inconclusive: -16.8%
72 | Cc1cc(=O)[nH]c(SCC(=O)Nc2nonc2C)n1 | inconclusive: 0.58 µM [rising, single point] | 
73 | COc1cccc(-n2c(SCC(=O)Nc3ccc4c(c3)CCC4)nc3ccccc3c2=O)c1 |  | inconclusive: -23.2%
74 | Cc1ccc(S(=O)(=O)CCC(=O)Nc2sccc2C#N)cc1 | inconclusive: 16.4 µM [falling, single point] | 
